Earlier results on 1 molecule are cited in patent publication US20040142970A1 (priority 2002, published 2004).

With `COc1cc2c(cc1OC)C(=O)C(CC1CCN(Cc3ccccc3)CC1)C2.Cl` (racemic) [donepezil, (±)-2,3-dihydro-5,6-dimethoxy-2-[[1-(phenylmethyl)-4-piperidinyl]methyl]-1H-inden-1-one hydrochloride], the plasma half life is 70 h.
